Some of the results follow. Small differences around the control level are noise.

Protein sequences, listed by entry. Tags and fused reporters are not part of them. Lines headed by an entry give the natural chain unless they say otherwise; changes in a name come on top.
UniProt Q9Y2J4: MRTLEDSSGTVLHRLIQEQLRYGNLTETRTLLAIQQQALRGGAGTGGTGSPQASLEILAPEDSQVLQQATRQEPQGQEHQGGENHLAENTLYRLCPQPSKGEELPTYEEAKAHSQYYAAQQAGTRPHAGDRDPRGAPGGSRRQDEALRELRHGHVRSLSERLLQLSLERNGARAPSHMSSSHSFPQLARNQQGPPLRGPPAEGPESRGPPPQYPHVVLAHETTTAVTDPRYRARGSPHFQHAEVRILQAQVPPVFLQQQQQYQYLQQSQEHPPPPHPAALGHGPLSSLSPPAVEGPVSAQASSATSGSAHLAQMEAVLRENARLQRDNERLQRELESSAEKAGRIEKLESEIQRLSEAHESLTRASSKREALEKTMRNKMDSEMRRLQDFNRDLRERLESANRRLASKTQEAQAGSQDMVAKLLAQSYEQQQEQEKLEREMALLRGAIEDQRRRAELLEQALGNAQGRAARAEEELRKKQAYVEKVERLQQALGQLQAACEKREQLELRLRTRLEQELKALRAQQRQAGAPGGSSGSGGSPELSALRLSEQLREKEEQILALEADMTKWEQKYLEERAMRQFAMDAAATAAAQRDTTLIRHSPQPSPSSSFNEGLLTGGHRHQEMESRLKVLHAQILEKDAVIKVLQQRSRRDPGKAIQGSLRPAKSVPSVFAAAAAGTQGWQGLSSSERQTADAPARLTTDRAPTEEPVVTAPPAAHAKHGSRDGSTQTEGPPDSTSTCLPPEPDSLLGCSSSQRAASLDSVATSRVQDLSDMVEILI
UniProt Q9Y3C7: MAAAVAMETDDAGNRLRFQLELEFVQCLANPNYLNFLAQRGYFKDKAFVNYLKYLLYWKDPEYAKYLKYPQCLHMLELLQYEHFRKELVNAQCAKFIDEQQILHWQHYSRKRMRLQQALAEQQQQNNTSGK
UniProt Q9Y3S2: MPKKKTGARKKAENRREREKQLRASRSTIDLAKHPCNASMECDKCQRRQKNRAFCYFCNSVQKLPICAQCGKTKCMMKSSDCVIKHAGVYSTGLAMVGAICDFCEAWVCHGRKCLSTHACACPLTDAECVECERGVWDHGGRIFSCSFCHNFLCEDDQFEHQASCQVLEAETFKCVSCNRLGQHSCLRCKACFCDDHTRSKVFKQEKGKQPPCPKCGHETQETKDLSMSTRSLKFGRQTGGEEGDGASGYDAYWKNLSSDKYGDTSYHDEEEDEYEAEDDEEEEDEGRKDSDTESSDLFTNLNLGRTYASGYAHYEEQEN
UniProt Q9Y573: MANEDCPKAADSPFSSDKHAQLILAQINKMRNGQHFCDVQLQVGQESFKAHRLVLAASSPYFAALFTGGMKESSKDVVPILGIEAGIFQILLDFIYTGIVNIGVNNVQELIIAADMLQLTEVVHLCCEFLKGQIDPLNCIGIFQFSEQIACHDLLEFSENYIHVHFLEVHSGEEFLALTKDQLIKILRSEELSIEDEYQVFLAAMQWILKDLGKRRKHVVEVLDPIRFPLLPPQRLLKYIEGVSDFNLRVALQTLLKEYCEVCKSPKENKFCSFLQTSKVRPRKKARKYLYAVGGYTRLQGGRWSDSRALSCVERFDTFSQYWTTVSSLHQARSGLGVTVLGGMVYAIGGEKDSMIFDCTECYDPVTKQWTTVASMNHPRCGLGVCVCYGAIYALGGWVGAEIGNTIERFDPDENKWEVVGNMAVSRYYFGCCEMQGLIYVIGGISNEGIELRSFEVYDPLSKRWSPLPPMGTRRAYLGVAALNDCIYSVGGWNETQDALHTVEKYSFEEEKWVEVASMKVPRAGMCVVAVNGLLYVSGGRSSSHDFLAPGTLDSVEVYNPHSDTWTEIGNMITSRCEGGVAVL
UniProt Q9Y303: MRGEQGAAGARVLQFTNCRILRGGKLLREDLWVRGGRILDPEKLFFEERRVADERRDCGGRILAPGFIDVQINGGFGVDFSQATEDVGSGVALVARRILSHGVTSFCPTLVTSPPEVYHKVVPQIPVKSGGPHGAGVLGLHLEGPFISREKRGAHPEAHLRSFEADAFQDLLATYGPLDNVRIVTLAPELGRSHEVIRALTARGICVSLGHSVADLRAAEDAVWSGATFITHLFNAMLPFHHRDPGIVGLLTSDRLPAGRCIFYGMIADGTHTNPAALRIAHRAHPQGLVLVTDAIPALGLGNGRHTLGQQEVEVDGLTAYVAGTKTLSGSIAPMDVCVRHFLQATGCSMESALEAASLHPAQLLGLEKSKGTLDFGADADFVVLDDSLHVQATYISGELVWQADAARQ
UniProt Q9Y276: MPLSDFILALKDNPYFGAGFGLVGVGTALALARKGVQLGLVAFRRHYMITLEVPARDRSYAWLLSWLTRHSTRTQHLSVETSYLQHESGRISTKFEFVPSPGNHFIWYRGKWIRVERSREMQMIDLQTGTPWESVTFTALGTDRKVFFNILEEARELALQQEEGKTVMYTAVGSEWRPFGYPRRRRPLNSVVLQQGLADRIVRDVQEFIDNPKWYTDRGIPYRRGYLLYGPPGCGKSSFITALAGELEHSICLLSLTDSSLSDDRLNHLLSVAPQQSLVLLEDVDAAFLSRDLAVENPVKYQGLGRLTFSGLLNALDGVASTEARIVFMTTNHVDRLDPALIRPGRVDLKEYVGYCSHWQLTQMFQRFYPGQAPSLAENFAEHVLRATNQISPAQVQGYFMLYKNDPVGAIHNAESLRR
UniProt Q9Y6K8: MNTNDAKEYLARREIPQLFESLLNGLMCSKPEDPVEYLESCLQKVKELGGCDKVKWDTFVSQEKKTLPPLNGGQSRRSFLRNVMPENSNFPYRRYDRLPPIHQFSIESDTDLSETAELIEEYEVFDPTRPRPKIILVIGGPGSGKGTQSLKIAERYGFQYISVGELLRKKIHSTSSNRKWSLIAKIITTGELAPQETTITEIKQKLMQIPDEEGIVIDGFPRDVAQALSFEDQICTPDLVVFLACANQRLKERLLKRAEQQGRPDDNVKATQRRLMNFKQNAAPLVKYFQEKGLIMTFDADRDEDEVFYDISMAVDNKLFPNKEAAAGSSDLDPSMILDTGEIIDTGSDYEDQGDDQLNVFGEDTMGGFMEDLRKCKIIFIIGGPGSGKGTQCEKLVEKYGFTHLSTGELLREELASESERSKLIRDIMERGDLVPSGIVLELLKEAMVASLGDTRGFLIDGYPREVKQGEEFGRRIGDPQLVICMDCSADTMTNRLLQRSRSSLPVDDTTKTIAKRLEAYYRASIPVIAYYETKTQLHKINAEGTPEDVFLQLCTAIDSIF
UniProt Q9Y587: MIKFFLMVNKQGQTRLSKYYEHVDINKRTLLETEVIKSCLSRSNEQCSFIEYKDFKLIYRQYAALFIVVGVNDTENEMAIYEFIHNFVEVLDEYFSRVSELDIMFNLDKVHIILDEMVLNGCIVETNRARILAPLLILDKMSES
UniProt Q9Y333: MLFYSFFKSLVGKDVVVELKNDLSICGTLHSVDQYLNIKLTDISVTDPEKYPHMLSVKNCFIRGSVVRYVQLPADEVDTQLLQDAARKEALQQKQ
UniProt Q9Y296, whole entry: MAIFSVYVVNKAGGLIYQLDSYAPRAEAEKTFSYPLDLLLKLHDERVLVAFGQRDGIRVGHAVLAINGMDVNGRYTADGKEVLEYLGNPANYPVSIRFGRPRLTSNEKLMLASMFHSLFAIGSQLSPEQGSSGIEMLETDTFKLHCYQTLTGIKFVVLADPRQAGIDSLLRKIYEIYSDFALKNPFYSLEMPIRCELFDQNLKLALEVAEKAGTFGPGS
UniProt Q9Y2X7: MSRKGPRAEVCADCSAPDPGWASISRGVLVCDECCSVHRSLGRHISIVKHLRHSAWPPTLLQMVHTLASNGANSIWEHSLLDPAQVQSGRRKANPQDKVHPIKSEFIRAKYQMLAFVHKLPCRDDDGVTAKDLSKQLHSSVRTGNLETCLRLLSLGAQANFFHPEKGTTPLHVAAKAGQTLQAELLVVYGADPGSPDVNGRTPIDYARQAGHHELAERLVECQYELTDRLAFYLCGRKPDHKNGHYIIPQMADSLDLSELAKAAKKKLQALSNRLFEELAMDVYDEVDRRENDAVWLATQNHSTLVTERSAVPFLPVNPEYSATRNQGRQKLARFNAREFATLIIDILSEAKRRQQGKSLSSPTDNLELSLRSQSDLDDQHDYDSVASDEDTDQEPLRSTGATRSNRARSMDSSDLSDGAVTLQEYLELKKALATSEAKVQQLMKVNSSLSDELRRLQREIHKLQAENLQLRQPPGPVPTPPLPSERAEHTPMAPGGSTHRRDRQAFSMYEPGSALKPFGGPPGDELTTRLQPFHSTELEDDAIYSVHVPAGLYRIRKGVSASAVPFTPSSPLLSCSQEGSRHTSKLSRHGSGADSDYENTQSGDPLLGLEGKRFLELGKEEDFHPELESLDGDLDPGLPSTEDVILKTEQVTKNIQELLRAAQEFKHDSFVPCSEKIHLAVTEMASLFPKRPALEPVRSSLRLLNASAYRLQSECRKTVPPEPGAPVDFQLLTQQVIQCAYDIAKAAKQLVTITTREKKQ
UniProt Q9Y6G5, whole entry: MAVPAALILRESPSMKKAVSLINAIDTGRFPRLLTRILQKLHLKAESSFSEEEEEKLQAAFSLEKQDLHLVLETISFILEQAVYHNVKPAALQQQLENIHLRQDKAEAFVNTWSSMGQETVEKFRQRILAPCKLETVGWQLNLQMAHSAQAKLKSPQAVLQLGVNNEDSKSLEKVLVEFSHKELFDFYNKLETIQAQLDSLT
UniProt Q9Y285: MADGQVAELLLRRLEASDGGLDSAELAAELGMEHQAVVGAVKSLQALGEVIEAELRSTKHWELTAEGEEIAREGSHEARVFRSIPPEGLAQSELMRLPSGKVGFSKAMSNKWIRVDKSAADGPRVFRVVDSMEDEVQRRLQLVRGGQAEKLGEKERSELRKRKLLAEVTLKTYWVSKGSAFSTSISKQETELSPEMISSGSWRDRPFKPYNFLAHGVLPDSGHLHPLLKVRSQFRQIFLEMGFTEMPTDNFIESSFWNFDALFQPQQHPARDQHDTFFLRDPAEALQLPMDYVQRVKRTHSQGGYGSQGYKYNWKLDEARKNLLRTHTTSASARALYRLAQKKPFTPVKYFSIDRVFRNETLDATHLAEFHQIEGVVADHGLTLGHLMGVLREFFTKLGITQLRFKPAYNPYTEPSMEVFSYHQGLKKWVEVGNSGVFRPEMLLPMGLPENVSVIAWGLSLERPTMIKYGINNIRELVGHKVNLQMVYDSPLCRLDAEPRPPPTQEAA
UniProt Q9Y646: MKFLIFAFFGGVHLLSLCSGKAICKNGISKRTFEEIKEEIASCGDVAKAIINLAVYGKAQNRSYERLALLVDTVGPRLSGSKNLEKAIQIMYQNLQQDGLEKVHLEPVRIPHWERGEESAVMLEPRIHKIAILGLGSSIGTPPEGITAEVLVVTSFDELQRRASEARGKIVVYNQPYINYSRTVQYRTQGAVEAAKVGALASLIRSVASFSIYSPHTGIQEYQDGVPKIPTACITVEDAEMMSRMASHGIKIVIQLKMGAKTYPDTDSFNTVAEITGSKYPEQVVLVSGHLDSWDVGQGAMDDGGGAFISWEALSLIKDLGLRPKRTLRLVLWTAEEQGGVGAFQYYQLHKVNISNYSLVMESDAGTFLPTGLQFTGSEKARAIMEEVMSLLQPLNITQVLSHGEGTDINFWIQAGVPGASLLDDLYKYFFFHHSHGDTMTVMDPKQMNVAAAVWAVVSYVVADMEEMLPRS
UniProt Q9Y2L1: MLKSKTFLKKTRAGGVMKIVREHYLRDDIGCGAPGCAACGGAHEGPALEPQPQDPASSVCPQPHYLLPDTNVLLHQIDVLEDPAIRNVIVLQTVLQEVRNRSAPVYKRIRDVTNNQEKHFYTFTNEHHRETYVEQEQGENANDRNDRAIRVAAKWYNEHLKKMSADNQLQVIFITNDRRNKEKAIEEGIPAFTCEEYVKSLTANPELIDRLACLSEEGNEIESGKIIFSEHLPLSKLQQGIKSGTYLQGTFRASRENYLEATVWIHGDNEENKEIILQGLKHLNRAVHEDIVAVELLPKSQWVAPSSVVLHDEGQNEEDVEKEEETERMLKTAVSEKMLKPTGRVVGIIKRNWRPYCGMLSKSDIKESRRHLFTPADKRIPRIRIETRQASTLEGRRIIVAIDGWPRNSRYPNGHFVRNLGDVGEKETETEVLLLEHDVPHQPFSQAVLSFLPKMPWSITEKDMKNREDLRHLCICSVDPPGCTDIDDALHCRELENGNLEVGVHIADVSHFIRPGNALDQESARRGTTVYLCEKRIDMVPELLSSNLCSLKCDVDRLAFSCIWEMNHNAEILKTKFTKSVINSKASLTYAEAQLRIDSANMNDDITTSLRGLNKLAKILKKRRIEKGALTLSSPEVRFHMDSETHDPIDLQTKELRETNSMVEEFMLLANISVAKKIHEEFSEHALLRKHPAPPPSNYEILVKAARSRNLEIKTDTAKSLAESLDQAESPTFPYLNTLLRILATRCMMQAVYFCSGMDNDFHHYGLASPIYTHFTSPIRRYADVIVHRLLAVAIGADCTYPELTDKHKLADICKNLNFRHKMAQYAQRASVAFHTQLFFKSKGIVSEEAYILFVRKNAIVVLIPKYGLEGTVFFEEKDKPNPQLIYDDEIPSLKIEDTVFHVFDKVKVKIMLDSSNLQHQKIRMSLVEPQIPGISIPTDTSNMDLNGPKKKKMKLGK

Compound in this assay: Cc1nc(Nc2ncc(C(=O)Nc3c(C)cccc3Cl)s2)cc(N2CCN(CCO)CC2)n1 [dasatinib]
As to the kind of experiment: log2 fold change of tryptic peptide abundance, ligand vs vehicle (limited proteolysis) (log2 ratio); higher = more trypsin-susceptible (destabilized). The conditions noted are these: ligand concentration: 5 uM; sample: K562 cleared lysate.
“UniProt Q9Y2J4 (peptide sequence: LIQEQLR, peptide start residue: 102)”: the log2 fold change is 0.253.
Take “MAD1L1 (peptide sequence: FVVELQQR, peptide start residue: 337) (UniProt Q9Y6D9)”: the log2 fold change is -0.0904.
As for “AP4B1 (peptide sequence: TSSFAASGPLIPEENKER, peptide start residue: 591) (UniProt Q9Y6B7)”, the log2 fold change is 0.183.
As for “MED31 (peptide sequence: FIDEQQILHWQHYSR, peptide start residue: 96) (UniProt Q9Y3C7)”, the figure is -0.0769; as for “ZNF330 (peptide sequence: CKACFCDDHTR, peptide start residue: 189) (UniProt Q9Y3S2)”, 0.0701; as for “IPP (peptide sequence: FCSFLQTSK, peptide start residue: 271) (UniProt Q9Y573)”, 0.12.
As for “MRPL42 (peptide sequence: VEHLEEGPMIEQLSK, peptide start residue: 100) (UniProt Q9Y6G3)”, the figure is 0.471; as for “KCTD3 (peptide sequence: IAEGFSESK, peptide start residue: 731) (UniProt Q9Y597)”, -0.083.
Under “TEX264 (peptide sequence: LDPGTEPLGTTK, peptide start residue: 289) (UniProt Q9Y6I9)” stands 0.0892.
Regarding “NOP58 (peptide sequence: IVKEAHEPLAVADAK, peptide start residue: 79) (UniProt Q9Y2X3)”, the log2 fold change amounted to 0.892.
Regarding “AMDHD2 (peptide sequence: IVTLAPELGR, peptide start residue: 183) (UniProt Q9Y303)”, the log2 fold change was -0.161.
As for “DMXL1 (peptide sequence: GSEDFLVIHAR, peptide start residue: 2691) (UniProt Q9Y485)”, the log2 fold change is -0.225.
Regarding “UniProt Q9Y2H1 (peptide sequence: SKDWVFLNYTYK, peptide start residue: 433)”, the log2 fold change was 0.821.
Under “BCS1L (peptide sequence: GYLLYGPPGCGK, peptide start residue: 225) (UniProt Q9Y276)” stands 0.431; under “UniProt Q9Y3U8 (peptide sequence: FVRDMIR, peptide start residue: 39)”, -0.402; under “TRAF6 (peptide sequence: METQSMYVSELKR, peptide start residue: 320) (UniProt Q9Y4K3)”, 0.246.
“AK5 (peptide sequence: GFLIDGYPR, peptide start residue: 89) (UniProt Q9Y6K8)”: the log2 fold change was -0.0329.
In the case of “TPRKB (peptide sequence: NLPEIMNITEVKK, peptide start residue: 135) (UniProt Q9Y3C4)”, the log2 fold change amounted to 0.0707.
In the case of “AP4S1 (peptide sequence: FFLMVNK, peptide start residue: 4) (UniProt Q9Y587)”, the log2 fold change was -0.155.
In the case of “UniProt Q9Y333 (peptide sequence: MLFYSFFK, peptide start residue: 1)”, the log2 fold change is -0.178.
With “MTF2 (peptide sequence: KSVGRPPGPYTR, peptide start residue: 400) (UniProt Q9Y483)”, the log2 fold change was -0.37.
As for “TRAPPC4 (peptide sequence: FVVLADPR, peptide start residue: 155) (UniProt Q9Y296)”, the log2 fold change was 0.29.
Turning to “GIT1 (peptide sequence: LQAENLQLR, peptide start residue: 464) (UniProt Q9Y2X7)”, the log2 fold change was -0.23.
Turning to “COMMD10 (peptide sequence: AVSLINAIDTGRFPR, peptide start residue: 18) (UniProt Q9Y6G5)”, the log2 fold change is -0.286.
As for “UniProt Q9Y4F4 (peptide sequence: KPHATEQK, peptide start residue: 1642)”, the figure is -0.268.
Consider “USP20 (peptide sequence: MAPSYVLKK, peptide start residue: 417) (UniProt Q9Y2K6)”, for which the log2 fold change is -0.223.
With “POLDIP2 (peptide sequence: IPPFSLESNKDEK, peptide start residue: 348) (UniProt Q9Y2S7)”, the log2 fold change is -0.404.
Turning to “FARSA (peptide sequence: KLLAEVTLK, peptide start residue: 163) (UniProt Q9Y285)”, the log2 fold change is 0.101.
For the target “CPQ (peptide sequence: LALLVDTVGPR, peptide start residue: 67) (UniProt Q9Y646)”, the log2 fold change was -0.155.
Regarding “UniProt Q9Y4D8 (peptide sequence: CVEWEKEEGGSTEAVHSGLAR, peptide start residue: 1334)”, the log2 fold change was found to be 0.608.
For “ARL2BP (peptide sequence: SSSLPASQNNLR, peptide start residue: 151) (UniProt Q9Y2Y0)”, the log2 fold change amounted to 0.087.
Under “UniProt Q9Y2I7 (peptide sequence: VSQVYVAIDER, peptide start residue: 1420)” stands -0.257; under “UniProt Q9Y2Q5 (peptide sequence: VANLLLCMYAK, peptide start residue: 86)”, 0.0743; under “SH3GLB1 (peptide sequence: ITQSEFDR, peptide start residue: 197) (UniProt Q9Y371)”, -0.0724.
For the target “DIS3 (peptide sequence: KIHEEFSEHALLR, peptide start residue: 677) (UniProt Q9Y2L1)”, the log2 fold change was -0.669.
For “NOP16 (peptide sequence: YMVENHGEDYK, peptide start residue: 121) (UniProt Q9Y3C1)”, the log2 fold change turned out to be 0.169.
On to “COG6 (peptide sequence: YTLDEFGTARR, peptide start residue: 264) (UniProt Q9Y2V7)”, for which the log2 fold change is -0.368.
